Assay results published in PMC13035864.
Results are given in words; binding and its absence hold for the method and conditions named. In cells and extracts the contact can be indirect. Here binding means that the protein was enriched with, or labelled near, the bait; the list need not be complete.

The chains behind the UniProt entries cited, without tags or fusion partners.
UniProt Q9UPY5: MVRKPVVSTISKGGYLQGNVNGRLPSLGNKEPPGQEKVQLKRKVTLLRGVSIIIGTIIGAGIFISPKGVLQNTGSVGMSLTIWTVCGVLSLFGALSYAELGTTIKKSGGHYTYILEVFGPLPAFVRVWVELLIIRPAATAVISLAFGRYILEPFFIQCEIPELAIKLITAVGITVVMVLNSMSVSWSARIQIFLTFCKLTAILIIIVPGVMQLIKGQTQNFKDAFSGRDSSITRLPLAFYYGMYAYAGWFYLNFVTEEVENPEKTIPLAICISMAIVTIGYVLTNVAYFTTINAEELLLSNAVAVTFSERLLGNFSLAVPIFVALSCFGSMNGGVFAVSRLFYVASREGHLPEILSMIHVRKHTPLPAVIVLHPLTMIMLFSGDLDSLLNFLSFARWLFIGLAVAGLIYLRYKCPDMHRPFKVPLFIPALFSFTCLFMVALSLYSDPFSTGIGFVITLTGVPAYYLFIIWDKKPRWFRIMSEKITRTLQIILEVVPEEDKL
UniProt P19474: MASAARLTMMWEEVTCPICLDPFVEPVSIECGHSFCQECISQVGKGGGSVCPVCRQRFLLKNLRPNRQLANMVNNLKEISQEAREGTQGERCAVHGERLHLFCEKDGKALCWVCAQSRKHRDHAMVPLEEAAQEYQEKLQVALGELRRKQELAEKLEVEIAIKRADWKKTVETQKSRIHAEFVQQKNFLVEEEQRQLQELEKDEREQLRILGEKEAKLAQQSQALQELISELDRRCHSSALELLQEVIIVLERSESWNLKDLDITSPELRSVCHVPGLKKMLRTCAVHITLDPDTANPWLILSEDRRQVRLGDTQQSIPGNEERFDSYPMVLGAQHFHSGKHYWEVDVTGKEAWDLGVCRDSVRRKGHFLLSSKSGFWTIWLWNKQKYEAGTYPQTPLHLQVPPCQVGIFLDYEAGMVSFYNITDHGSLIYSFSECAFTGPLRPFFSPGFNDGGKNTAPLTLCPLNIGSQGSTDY

Target: SLC7A11 immunoprecipitated from HEK293 cells overexpressing CCDC7_(19-13) (human (endogenous in HEK293)) (UniProt Q9UPY5)
Assay: affinity purification with mass spectrometry; SLC7A11 immunoprecipitates from HEK293 cells overexpressing CCDC7_(19-13)

binding: binds
Substance: TRIM21 in HEK293 cells overexpressing CCDC7_(19-13) (from UniProt P19474 1-475) (enzyme)
